# Primary screen of a compound library

Chains of the proteins cited; added tags and fusions are not shown.
UniProt I6X8D2, whole entry: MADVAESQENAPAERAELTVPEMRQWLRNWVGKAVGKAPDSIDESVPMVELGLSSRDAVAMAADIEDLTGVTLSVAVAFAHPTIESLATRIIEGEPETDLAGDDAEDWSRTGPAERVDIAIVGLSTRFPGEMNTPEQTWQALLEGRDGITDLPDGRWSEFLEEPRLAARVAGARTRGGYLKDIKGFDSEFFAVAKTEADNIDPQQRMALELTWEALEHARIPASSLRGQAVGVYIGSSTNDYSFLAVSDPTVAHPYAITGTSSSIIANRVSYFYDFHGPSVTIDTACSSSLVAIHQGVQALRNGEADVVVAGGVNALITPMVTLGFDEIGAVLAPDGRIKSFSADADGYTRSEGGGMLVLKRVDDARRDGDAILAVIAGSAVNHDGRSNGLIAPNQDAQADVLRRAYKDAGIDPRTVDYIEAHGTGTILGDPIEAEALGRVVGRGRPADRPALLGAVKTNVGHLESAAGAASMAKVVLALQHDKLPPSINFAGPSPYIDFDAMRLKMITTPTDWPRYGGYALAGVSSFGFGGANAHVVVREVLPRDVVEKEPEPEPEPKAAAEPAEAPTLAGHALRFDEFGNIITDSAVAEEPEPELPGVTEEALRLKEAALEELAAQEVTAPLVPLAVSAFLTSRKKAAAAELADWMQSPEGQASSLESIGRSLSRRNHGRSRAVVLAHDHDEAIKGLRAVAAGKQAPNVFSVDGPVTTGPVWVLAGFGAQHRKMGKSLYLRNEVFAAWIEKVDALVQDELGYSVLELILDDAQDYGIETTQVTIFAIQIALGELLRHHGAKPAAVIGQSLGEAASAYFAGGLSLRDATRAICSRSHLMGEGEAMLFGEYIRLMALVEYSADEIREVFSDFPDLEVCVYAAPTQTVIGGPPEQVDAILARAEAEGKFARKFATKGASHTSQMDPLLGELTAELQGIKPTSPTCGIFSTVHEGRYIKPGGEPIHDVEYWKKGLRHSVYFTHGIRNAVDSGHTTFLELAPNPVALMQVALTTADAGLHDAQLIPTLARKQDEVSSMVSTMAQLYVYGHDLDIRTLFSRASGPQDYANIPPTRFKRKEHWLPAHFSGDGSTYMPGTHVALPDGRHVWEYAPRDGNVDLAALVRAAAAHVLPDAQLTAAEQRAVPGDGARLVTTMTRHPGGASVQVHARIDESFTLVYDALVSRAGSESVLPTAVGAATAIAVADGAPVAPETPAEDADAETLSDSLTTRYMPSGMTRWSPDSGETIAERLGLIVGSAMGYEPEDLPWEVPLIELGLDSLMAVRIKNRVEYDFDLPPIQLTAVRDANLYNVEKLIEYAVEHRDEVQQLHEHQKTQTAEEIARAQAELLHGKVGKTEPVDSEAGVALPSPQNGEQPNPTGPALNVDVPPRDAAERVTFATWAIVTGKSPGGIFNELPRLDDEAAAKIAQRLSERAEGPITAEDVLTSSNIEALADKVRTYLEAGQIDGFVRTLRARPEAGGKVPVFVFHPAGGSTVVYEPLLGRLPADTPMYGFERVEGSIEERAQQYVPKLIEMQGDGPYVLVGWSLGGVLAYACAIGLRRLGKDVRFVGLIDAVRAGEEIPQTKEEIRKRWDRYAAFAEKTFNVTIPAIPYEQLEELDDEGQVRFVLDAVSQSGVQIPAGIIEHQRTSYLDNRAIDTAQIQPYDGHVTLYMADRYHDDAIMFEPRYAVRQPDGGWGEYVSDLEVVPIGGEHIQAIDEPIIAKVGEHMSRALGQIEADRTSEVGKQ

Measurements from “University of Dundee, Small-Polar-MMV Screening Library” (2021), ChEMBL document CHEMBL3988442.

Each number is a percent effect as filed. How 0% and 100% were set is not recorded. Most values in the screen are low, and negative values occur. This is an unselected part of the compounds tested. A dash means the value is not listed here; it may have been measured.

Toxoplasma: 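Assay of Toxoplasma gondii numbers, read through their beta-galactosidase reporter with a colour substrate. Compounds at 10 µM. Higher reads as fewer parasites (inferred from which compounds were picked for retests). Of about 67,000 compounds tested this way, about 260 (0.38%) reached 50% or more in at least one test.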
Pks13 thioesterase: 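Polyketide synthase Pks13, Mycobacterium tuberculosis (UniProt I6X8D2). Enzyme assay of the thioesterase domain of polyketide synthase 13; the read-out is not stated. Concentration: 30 µM. The record gives no direction; the compounds picked for IC50 retests had high values, so higher reads as stronger inhibition. Of about 67,000 compounds tested this way, about 300 (0.46%) reached 50% or more in at least one test.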

structure | Toxoplasma | Pks13 thioesterase
CC(Cn1ccnc1)NC(=O)C1(c2ccccc2)CC1 (stereo not drawn) | 11.46 | -11.79
COCC1CN(C(=O)Cc2cccs2)Cc2nnn(C)c21 (stereo not drawn) | 4.219 | 3.168
Cc1cnn(CCCNC(=O)NCCC(=O)Nc2ccccc2)c1 | -7.265 | -4.393
Cc1ccc(C(=O)N2CCc3ncccc3C2)cc1N1CCNC1=O | 3.585 | -0.8455
Cc1nn(C)cc1-c1ccnc(N(C)Cc2ccoc2)n1 | - | 139.1
CN(Cc1ccc(CCC(C)(C)O)cc1)Cc1cccnc1 | 18.34 | -21.85
CC(C)N(C)Cc1cncc2c1CCN(CC(=O)N(C)C)C2 | - | -51.02
Cc1ccc(NC(=O)Cn2ncc(SCC(N)=O)c(Cl)c2=O)c(F)c1 | -14.12 | -
Cc1nn(C)c(C)c1C(C(=O)O)N1CCc2ccccc2C1 (stereo not drawn) | -1.955 | -21.54
Cc1ccc2c(c1)OCCCC2NC1CCN(C)CC1 (stereo not drawn) | 1.282 | -45.51
NC(=O)C1CCCN1Cc1cccc(NC(=O)c2cc(Cl)cc(Cl)c2)c1 (stereo not drawn) | 19.07 | 1.878
CS(=O)(=O)c1cc(Cl)cnc1C1CCN(C(=O)C2CCCO2)CC1 (stereo not drawn) | 8.855 | 7.425
Cc1nc(-c2ccco2)ccc1C(=O)NCCCN1CCOCC1 | 2.267 | -4.048
CN(CCN1CCCCC1=O)Cc1cc2cc3c(cc2[nH]c1=O)OCO3 | 1.768 | -6.236
Cc1noc(C)c1CN1CCc2ncnc(-c3ccccc3)c2CC1.O=C(O)C(F)(F)F | -46.26 | -
Cc1cc(CN2C[C@H]3CC[C@@H]2CN(C2Cc4ccccc4C2)C3)on1 | - | 9.434
Cc1ccc(C(=O)N2CCC(Oc3ccccc3)CC2)c(=O)[nH]1 | 1.861 | -8.25
O=c1[nH]c(COc2ccccc2Cl)nc2c1CCNC2 | -5.498 | -11.05
NC(=O)N1CCCC(C(=O)NCc2noc(Cc3ccccc3)n2)C1 (stereo not drawn) | -0.4006 | -10.77
Cc1cc(N(C)C)nc(N2CCCC2c2ccccn2)n1 (stereo not drawn) | 15.99 | 0.3756
CC(C)n1nc(Cn2cccc2)c2c1CN(C1CCOCC1)C2 | - | -30.15
CC(C)c1n[nH]c(C2CN(C(=O)c3cc(Cl)c[nH]3)CCO2)n1 (stereo not drawn) | -4.877 | -1.898
O=C(O)C(F)(F)F.O=C(O)C(F)(F)F.[H][C@@]12C[C@@H](Oc3cncnc3)CN1CCN(Cc1ccccn1)C2 | 12.02 | -
CCn1ccc2ccnc(CC3CN(C(=O)Cn4ccnc4C)C3)c21 | - | 0.1075
CC(=O)c1nn(-c2ccccc2Cl)c(C)c1C(C)=O | -25.84 | -1.469
Cc1cc(N2CCCCC2)nc(N(CCO)CCO)c1C#N | 6.03 | -1.326
CCCn1nc2c(cc1=O)CN(Cc1nnc(C3CC3)o1)CC2 | 1.684 | 10.31
CC(C)(O)c1cc(CC2(NCC3CCCCC3)COC2)no1 | -4.462 | -13.26
COc1nn(C)cc1C(=O)NCC1(O)CCOCC1 | -0.6754 | -0.3964
CN(CCCNC(=O)C1CCCN(C(N)=O)C1)S(C)(=O)=O (stereo not drawn) | 25.11 | -25.22
O=C(Cc1ccc(S(=O)(=O)C(F)F)cc1)N1CCC1 | -16.06 | -26.59
CCc1nc(C(=O)N2CCN(C)CC2)nn1-c1ccccc1Cl | -7.84 | -20.29
c1ccc(-n2cncn2)c(CNCCn2cccn2)c1 | 3.426 | -13.25
O=C(O)c1ccccc1-c1ccc(CN2CC(O)C2)cc1 | 4.415 | 15.31
Cn1ccc2c(-c3ccc(NCCO)nn3)ccnc21 | -10.91 | -22.24
CCS(=O)(=O)N1CCN(C(=O)C(C)C)CC2(CC(=O)N(C)C2)C1 (stereo not drawn) | 3.723 | -27.18
Cc1ccccc1OCC(=O)N1CCOC2(CNCCOC2)C1 (stereo not drawn) | -15.57 | -5.431
O=C(CCc1cc(Cl)no1)N1CCN(CCn2cncn2)CC1 | 2.303 | -7.894
Cc1cc(C)c(CNC(=O)N2CCNC(=O)C2)c(=O)[nH]1 | -11.07 | 2.214
c1cc(-c2n[nH]c(CNc3nnc(C4CC4)o3)n2)ccn1 | -3.162 | -16.89
COc1ccc(C[C@H]2CN(C(=O)c3cnoc3)CC[C@@H]2OC)cc1 | -14.9 | 14.33
O=C(CC1CC1)NCc1cn2c(n1)CN(C(=O)c1cccnc1)CC2 | -1.165 | -15.42
CS(=O)(=O)c1nccn1Cc1ccc(F)cc1Cl | -7.036 | 1.998
Cc1cc(C)n(CC(C)NC(=O)c2cc(C(C)C)on2)n1 (stereo not drawn) | 5.502 | -37.88
O=C(c1ccnnc1)N1C[C@@H](OCc2cccnc2)[C@H]2OCCC[C@H]21 | - | -20.06
O=C(COc1ccc2c(c1)CCC2)NS(=O)(=O)c1cncc(Br)c1 | 2.632 | 2.279
O=C([C@@H]1C[C@@H]2CCN(C3CCOCC3)C[C@H]2O1)N1CCCC1 | - | -16.91
COCC1CC2(CCN(c3ccc(C)nn3)CC2)CN1C(C)C.O=C(O)C(F)(F)F (stereo not drawn) | -41.31 | -
O=C(CCc1ccccc1)N1CCn2cc(CN3CCCC3)nc2C1 | 0.1109 | -13.09
CC(=O)N1CCCN(C(C)c2ccc(Br)cc2)CC1 (stereo not drawn) | 6.169 | 4.654
Cn1nc2c(cc1=O)CN(CCCOc1ccc(C#N)cc1)CC2 | 4.307 | -11.04
CC(SCCC(=O)NC(N)=O)c1ccccc1F (stereo not drawn) | 4.23 | -30.61
[H][C@@]12CN(C(=O)CCOC)C[C@]1([H])C(=O)N(Cc1cccc(C)c1)C2 | -14.16 | -
O=C(c1ccnn1-c1ccc2ccccn12)N1CCOCC1 | -18.99 | -5.569
O=C(O)C(F)(F)F.[H][C@@]12OCCN(C(=O)COC)[C@@]1([H])CC[C@H]2OCc1cccnc1 | -2.479 | -
[H][C@@]12COC[C@H](c3nc(C)no3)[C@]1([H])CN(C(=O)Cc1cccs1)C2 | -10.26 | -
Cc1ccc(-c2cc(N)c(=O)n(CC(=O)NC3CCCCC3)n2)s1 | 1.345 | -45.63
CC(C)(C)NC(=O)C1CSCN1S(=O)(=O)c1ccccc1S(C)(=O)=O (stereo not drawn) | 12.88 | -14
CC(C)N(C)S(=O)(=O)N(C)Cc1cnn(Cc2ccccc2)c1 | 12.52 | -16.64
CO[C@H]1CCN(S(=O)(=O)c2cccs2)[C@H]1Cc1cccnc1 | - | -28.74
Cn1ncc2c(=O)[nH]c(CN3CCCc4cc(F)cc(F)c43)nc21 | 2.812 | 0.5864
COCc1nccc(C2CCCN(Cc3cccc(F)c3)C2)n1 (stereo not drawn) | 3.904 | -2.447
CC(C)C(C(=O)NCC1CC1)n1cnc2cc(F)c(F)cc21 (stereo not drawn) | -17.79 | -17.8
CCOC1CC2(CCN(C(=O)COC)CC2)c2cc(C)ccc21 (stereo not drawn) | -2.181 | -
Cc1nn(C)cc1-c1nn2c(C(F)(F)F)nnc2s1 | -21.07 | -4.946
CN(C)c1ncccc1CN1CCOC(C(=O)Nc2ccccc2)C1 (stereo not drawn) | -26.39 | -16.17
CCCN1CCN(Cc2nc3ccccc3[nH]2)[C@H]2CS(=O)(=O)C[C@H]21 | - | 3.802
CCN1C(=O)C[C@@H]2[C@@H]1CCN2S(=O)(=O)c1ccc(OC)cc1 | - | -42.14
COCCN(C)C(=O)Cn1cccc(OC)c1=O | 21.88 | 1.544
O=C(CCc1cn[nH]c1)N1C[C@@H](CN2CCOCC2)C[C@H](CO)C1 | 7.205 | 5.15
O=C(O)C(F)(F)F.O=C(O)C(F)(F)F.[H][C@@]12CN(CCOC)CC[C@]1([H])CN(Cc1cccnc1OC)C2 | 11.45 | -
COCC[C@]1(O)CCN(Cc2nnc(C)s2)C[C@H]1C | -4.387 | -20.95
O=C(NCC1CCOCC1)[C@@H]1CC[C@@H]2[C@@H](CCN2Cc2ccncc2)O1 | - | -30.31
Fc1cccc(N2CCCC3(CN(Cc4ccco4)CCO3)C2)c1 (stereo not drawn) | - | 7.427
CC(C)n1c(=O)nc2n1C(=O)N(c1ccc(Cl)cc1)C2 | -15.65 | -8.209
O=C(O)Cn1ccc(=O)c2ccc(Cl)cc21 | -15.62 | -1.876